# In PubChem BioAssay AID504834 (National Center for Advancing Translational Sciences (NCATS), 2011):
# Values joined by “and” are separate entries in the source; they are usually repeats but may differ in a detail not shown here. Equal entries are not always repeated. The campaign covered roughly 320,000 compounds. About 22,000 (6.9%) were called active. The shares of active, inactive and inconclusive entries below differ from those in the screen. Calls follow the shape of the dose curve; as a rule, active = well fitted inhibition curve with a large enough effect; inconclusive = small, poorly fitted or top-dose-only effect, or another doubt; inactive = no such curve, though single readings can be large or run the other way. Potencies beside an inconclusive call are fits to weak or partial responses and may not hold up.
# Assay: Primary qHTS for delayed death inhibitors of the malarial parasite plastid, 96 hour incubation
# Conditions: P. falciparum luciferase reporter growth; series mostly up to 28.7 µM
# Procedure, shortened: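 Cell-based qHTS: luciferase-tagged P. falciparum in erythrocytes (2% hematocrit, 0.05% parasitemia final) incubated with compounds for 96 hours, 37 C, 5% CO2; luciferase detection reagent then added and luminescence measured.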
# Potency is read from the fitted curve at half-maximal effect.
row,SMILES,Potency
1,CC(=O)COc1ncn(-c2ccccc2)n1,"inconclusive: 20.8 µM [inhibitor, partial curve, poor fit]"
2,O=C(N/N=C/c1c[nH]c2ccccc12)c1cccs1,inactive
3,Cc1ccc(NC(=O)NCc2ccccn2)c(C)c1,"inconclusive: 14.7 µM [inhibitor, partial curve, poor fit]"
4,O=C(CSc1nc(=O)n(CCN2CCOCC2)c2c1CCCC2)Nc1ccc([N+](=O)[O-])cc1,inactive
5,O=C(Nc1nc(-c2ccccc2)cs1)c1ccccc1F,active: 13.1 µM
6,Cc1cccc(Oc2nc3ccccn3c(=O)c2/C=C(\C#N)C(=O)NC2CCS(=O)(=O)C2)c1C (configuration not stated),"inconclusive: 1.04 µM [inhibitor, single point]"
7,O=C(COC(=O)c1nc(Cl)ccc1Cl)Nc1ccc2[nH]c(=O)[nH]c2c1,inactive
8,C=C(CC)C(=O)c1ccc(OCC(=O)O)c(Cl)c1Cl,active: 12 µM and active: 14.7 µM
9,COc1ccc(-c2cc(C(=O)N3CCOCC3)no2)cc1OC,active: 1.31 µM
10,COC(=O)Nc1ccc(S(=O)(=O)N2CCC(Cc3ccccc3)CC2)cc1,"inconclusive: 0.522 µM [inhibitor, full curve, poor fit]"
11,COc1ccc2[nH]c(O)c(N=O)c2c1,"inconclusive: 18.5 µM [inhibitor, single point]"
12,CCC1=NN(C(=O)Cc2ccc([N+](=O)[O-])cc2)C(O)(c2ccc(Br)cc2)C1 (configuration not stated),"inconclusive: 18.5 µM [inhibitor, single point]"
13,CCC(Sc1nncn1C)C(=O)Nc1nnc(-c2ccccc2Cl)s1 (configuration not stated),inactive
14,COc1ccc(CCNC2=CC(=O)N(c3ccc(F)cc3)C2=O)cc1,active: 3.29 µM
15,C[N+](C)(C)CCOP(=O)(O)OP(=O)([O-])OC[C@H]1O[C@@H](n2ccc(N)nc2=O)[C@H](O)[C@@H]1O,inactive
16,Nn1c(SCC(=O)NC2CCCc3ccccc32)nnc1-c1ccc(Cl)cc1Cl (configuration not stated),"inconclusive: 9.28 µM [inhibitor, partial curve, poor fit]"
17,O=C(NCc1cccnc1)c1ccc(Cl)cc1[N+](=O)[O-],"inconclusive: 0.0586 µM [inhibitor, full curve, poor fit]"
18,c1ccc2c(NCCCN3CCOCC3)c3ccccc3nc2c1,"inconclusive: 18.5 µM [inhibitor, single point]"
19,COC(=O)c1ccccc1N(C)C(=O)C12CCC(C)(C(=O)O1)C2(C)C (configuration not stated),"inconclusive: 18.5 µM [inhibitor, single point]"
20,CCN(CC)C(=O)Nc1ccc(Br)cc1,inactive
21,COc1ccc(OC)c(NC(=O)Cn2c(-c3ccc(Cl)cc3)noc2=O)c1,inactive
22,CC(C(=O)Nc1cccc(S(=O)(=O)N2CCOCC2)c1)N1CCN(C/C=C/c2ccccc2)CC1 (configuration not stated),"inconclusive: 0.37 µM [inhibitor, full curve, poor fit]"
23,Cc1cc(C)nc(/N=C(\N)N(Cc2ccccc2)Cc2ccccc2)n1,active: 10.4 µM
24,Cc1ccc(CNC(C)c2ccccc2)cc1 (configuration not stated),inactive

# Random excerpt: 2 records from the list, in no set order.
row,SMILES,Potency
2,O=C(N/N=C/c1c[nH]c2ccccc12)c1cccs1,inactive
14,COc1ccc(CCNC2=CC(=O)N(c3ccc(F)cc3)C2=O)cc1,active: 3.29 µM

# Going on with the list:

row,SMILES,Potency
1,CCOC(=O)C1CCCN(C(=O)c2cc3cc(OC)c(OC)cc3[nH]2)C1 (configuration not stated),inactive
2,O=C(Cc1ccccc1)Nc1ccc(NC(=O)c2cccnc2)cc1,"inconclusive: 18.5 µM [inhibitor, single point]"
3,O=C(/C=C/c1cccc([N+](=O)[O-])c1)c1ccc2c(c1)OCCO2,"inconclusive: 18.5 µM [inhibitor, single point]"
4,N#Cc1c(N)nc2c(c1-c1cccc(O)c1)CCCCCC2,inactive
5,CSc1ccccc1NC(=O)CN(C)C(=O)CCc1c[nH]c2ccccc12,inactive
6,COc1ccc(-c2cc(C(=O)O)[nH]n2)cc1OC,"inconclusive: 4.15 µM [inhibitor, full curve, poor fit]"
7,C=CCOc1ccc(/C=N/NC(=O)C(=O)Nc2ccccn2)cc1OC,active: 4.15 µM
8,COc1ccc(NC(=O)CSc2nc(N)c(NC(=O)c3ccccc3F)c(=O)[nH]2)cc1,inactive
9,CCC(=O)Nc1nnc(S(=O)(=O)N(CC)c2ccc(OC)cc2)s1,inactive
10,Cc1cc2nnc(SCC(=O)Nc3cc(S(=O)(=O)N4CCOCC4)ccc3Cl)n2c2ccccc12,active: 7.38 µM
11,OCC1(Cc2cccc(F)c2)CCN(Cc2cccc3nccnc23)CC1,"inconclusive: 11.7 µM [inhibitor, partial curve]"
12,COc1cccc(NC(=O)CN(C)C(=O)CC(NC(=O)c2ccccc2Cl)c2ccccc2)c1 (configuration not stated),"inconclusive: 0.104 µM [inhibitor, full curve, poor fit]"
13,CCc1ccc(NC(=O)COC(=O)CCCC2=NS(=O)(=O)c3ccccc3N2)cc1,"inconclusive: 18.5 µM [inhibitor, single point]"
14,Cc1cccc(-c2noc(CNS(=O)(=O)c3ccccc3)n2)c1,inactive
15,Cc1ccc(Nc2nnc(SCC(=O)NC3CCS(=O)(=O)C3)s2)c(C)c1 (configuration not stated),active: 2.62 µM
16,Cn1cnnc1SCc1ccc(C(=O)N=Nc2c(O)n(C)c3ccccc23)cc1,active: 10.4 µM
17,O=C(N/N=C\c1ccc(-c2ccccc2[N+](=O)[O-])o1)C1COc2ccccc2O1 (configuration not stated),"inconclusive: 11.7 µM [inhibitor, single point]"
18,CCCN(C(=O)c1cc(Cl)nc2ccccc12)c1c(N)n(Cc2ccccc2)c(=O)[nH]c1=O,"inconclusive: 9.28 µM [inhibitor, partial curve, poor fit]"
19,O=C(NCC1CCCO1)c1cn(Cc2ccccc2)nc1-c1ccc(Cl)cc1 (configuration not stated),inactive
20,CC(C)CC(C)N1CCC(n2nccc2NC(=O)CCc2ccccc2)CC1 (configuration not stated),"inconclusive: 13.1 µM [inhibitor, partial curve, poor fit]"
21,COc1ccccc1CN(Cc1cc2cc(C)ccc2[nH]c1=O)Cc1nnnn1Cc1ccco1,active: 3.29 µM
22,Cc1ccc(C(=O)NC(=S)Nc2cccnc2Cl)cc1,inactive
23,CCOc1ccc(NC(=O)Cc2ccc(NC3=NC4CS(=O)(=O)CC4S3)cc2)cc1 (configuration not stated),"inconclusive: 11.7 µM [inhibitor, partial curve, poor fit]"
24,CCCCn1cnc2c(=S)nc(N)[nH]c21,"inconclusive: 1.85 µM [inhibitor, full curve, poor fit]"

# As entered above:
# C=CCOc1ccc(/C=N/NC(=O)C(=O)Nc2ccccn2)cc1OC | Potency: active: 4.15 µM
# COc1ccc(-c2cc(C(=O)O)[nH]n2)cc1OC | Potency: inconclusive: 4.15 µM [inhibitor, full curve, poor fit]

# (further entries)

row,SMILES,Potency
1,CCCn1cc(SCC(=O)NC2CCCC2)c2ccccc21,"inconclusive: 10.4 µM [inhibitor, single point]"
2,Cc1ccccc1OC(=O)C1C(c2ccccc2)C(C(=O)O)C1c1ccccc1 (configuration not stated),inactive
3,O=C(Nc1nccs1)C1CCN(S(=O)(=O)c2cccs2)CC1,inactive
4,COCCn1cnc2c1c(=O)n(CC(=O)OCC(=O)NCC(F)(F)F)c(=O)n2Cc1ccccc1,"inconclusive: 18.5 µM [inhibitor, single point]"
5,Cc1ccc(C)c(CN2CCC(CNC(=O)Nc3ccc(C)c(C)c3)CC2)c1,inactive
6,O=C(O)c1ccc(N2CCS(=O)(=O)CC2)cc1,"inconclusive: 0.0928 µM [inhibitor, full curve, poor fit]"
7,Cc1c(Cl)cccc1NC(=S)N1CCCCCC1,"inconclusive: 18.5 µM [inhibitor, single point]"
8,CC(=O)c1cccc(NC(=O)CCNS(=O)(=O)c2cccc(C(C)=O)c2)c1,"inconclusive: 4.65 µM [inhibitor, partial curve]"
9,Cc1ccccc1OCC(=O)OCC(=O)NC1CC1,inactive
10,COc1cc2c(cc1OC)C1CC(=O)C(CC(C)C)CN1CC2 (configuration not stated),inactive
11,COc1ccc(-n2c(=O)c3c4c(sc3n(Cc3cccc(F)c3)c2=O)CN(C(C)=O)CC4)c(OC)c1,"inconclusive: 13.1 µM [inhibitor, single point]"
12,O=C1C2C3c4ccccc4C(c4ccccc43)[C@@H]2C(=O)N1c1nc(-c2ccccc2)cs1 (some centres not stated),"inconclusive: 14.7 µM [inhibitor, partial curve, poor fit]"
13,COc1ccc(NC(=O)c2ccc(NC(=O)c3ccncc3)cc2)cc1,inactive
14,COc1ccc(C(CC(=O)N2CCN(c3ccccc3)CC2)c2c(OC)cc(OC)c3ccc(=O)oc23)cc1 (configuration not stated),active: 8.28 µM
15,COc1ccccc1NC(=O)Nc1nc(CC(=O)N2CCN(c3ccccc3F)CC2)cs1,"inconclusive: 18.5 µM [inhibitor, single point]"
16,Cc1sc(NC(=O)C2CCCCC2C(=O)O)c(C(N)=O)c1-c1ccccc1 (configuration not stated),inactive
17,Cc1cc(=O)oc2c3c(cc(OCC(=O)NCC4CCC(C(=O)O)CC4)c12)OC(C)(C)CC3 (configuration not stated),"inconclusive: 7.38 µM [inhibitor, partial curve, poor fit]"
18,Cc1ccc(CN2CCN(C(=O)CC(C)C)CC2)cc1,"inconclusive: 9.28 µM [inhibitor, partial curve, poor fit]"
19,CC1(C)CCCN(C(=O)c2ccc3c(c2NCCO)C(=O)c2ccccc2C3=O)C1,"inconclusive: 18.5 µM [inhibitor, single point]"
20,Nc1ccc(S(=O)(=O)NC(=O)c2ccccc2)cc1,"inconclusive: 1.81 µM [inhibitor, partial curve, poor fit]"
21,COc1cccc(-n2nnnc2SCC(=O)Nc2cccc(NC(C)=O)c2)c1,"inconclusive: 18.5 µM [inhibitor, single point]"
22,Cc1ccc2cc(CN(C(=O)c3ccco3)c3ccccc3)c(=O)[nH]c2c1,"inconclusive: 18.5 µM [inhibitor, single point]"
23,O=C1c2cccc3c(N4CCOCC4)c([N+](=O)[O-])cc(c23)C(=O)N1c1cccc2ccccc12,active: 10.4 µM
24,CN1CCNC(=O)C1CC(=O)NCC1(c2ccccc2)CCCCC1 (configuration not stated),inactive
